Source: patent US12213977B2, “Methods and compositions for treating melanoma” (THE REGENTS OF THE UNIVERSITY OF CALIFORNIA, priority 2017, dated 2025)
At least one compound was matched to its structure with a doubt left.

Columns and labels:
[1] = tested on: reduced (GSH) and oxidized glutathione (GSSG) in M229P, M229R, M238P and M238R; test: Mass spectrometry measurement of glutathione levels; assay type: cell-based, human; details: 5 μM erastin, 8 hr; for oxidized glutathione (GSSG) level / reduced glutathione (GSH) level: M229P, M229R, M238P, M238R
M229P melanoma cell line = test: RNA sequencing time-course, subtype signatures and differentiation trajectory score; assay type: cell-based, human; details: M229P vemurafenib time-course, 500 nM

## CCOc1ccccc1-n1c(C(C)N2CCN(C(=O)COc3ccc(Cl)cc3)CC2)nc2ccccc2c1=O (stereo not drawn) [erastin]
[1]
  oxidized glutathione (GSSG) level: greatly depleted
  reduced glutathione (GSH) level: greatly depleted
[1]; listed as Erastin
  oxidized glutathione (GSSG) level: significantly depleted
  reduced glutathione (GSH) level: significantly depleted
[1]; M229R and M238R vs M229P and M238P
  fold change in GSH and GSSG with treatment compared to parental lines: greater fold change decrease

## CCCS(=O)(=O)Nc1ccc(F)c(C(=O)c2c[nH]c3ncc(-c4ccc(Cl)cc4)cc23)c1F [vemurafenib]
M229P melanoma cell line
  gene expression changes through subtype signatures: progressive dedifferentiation
